Results published in article PMC6393303.
Results are given in words; binding and its absence hold for the method and conditions named. Some binding calls cover weakened binding; strength is not graded here.

Amino acid sequences for entries named in this document (tags omitted). A change or cut given only in a name is not applied to a line headed by its entry. Chains listed by the source or under a name are the forms on record and can include a tag or linker.
Pol32-11 (amino acids 1–142 + 310–350, lacking amino acids 143–309) (P47110, form named): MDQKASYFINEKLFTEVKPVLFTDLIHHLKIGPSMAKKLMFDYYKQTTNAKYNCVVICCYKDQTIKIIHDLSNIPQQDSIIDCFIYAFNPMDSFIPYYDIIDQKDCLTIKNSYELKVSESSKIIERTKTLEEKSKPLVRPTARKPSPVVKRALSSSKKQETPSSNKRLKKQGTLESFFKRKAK

Molecular target: T1, Pol3 catalytic subunit of mini-Pol δ-DV (N-terminal truncation of 81 amino acids, D520V) (S. cerevisiae) (UniProt P15436)
T1 sequence: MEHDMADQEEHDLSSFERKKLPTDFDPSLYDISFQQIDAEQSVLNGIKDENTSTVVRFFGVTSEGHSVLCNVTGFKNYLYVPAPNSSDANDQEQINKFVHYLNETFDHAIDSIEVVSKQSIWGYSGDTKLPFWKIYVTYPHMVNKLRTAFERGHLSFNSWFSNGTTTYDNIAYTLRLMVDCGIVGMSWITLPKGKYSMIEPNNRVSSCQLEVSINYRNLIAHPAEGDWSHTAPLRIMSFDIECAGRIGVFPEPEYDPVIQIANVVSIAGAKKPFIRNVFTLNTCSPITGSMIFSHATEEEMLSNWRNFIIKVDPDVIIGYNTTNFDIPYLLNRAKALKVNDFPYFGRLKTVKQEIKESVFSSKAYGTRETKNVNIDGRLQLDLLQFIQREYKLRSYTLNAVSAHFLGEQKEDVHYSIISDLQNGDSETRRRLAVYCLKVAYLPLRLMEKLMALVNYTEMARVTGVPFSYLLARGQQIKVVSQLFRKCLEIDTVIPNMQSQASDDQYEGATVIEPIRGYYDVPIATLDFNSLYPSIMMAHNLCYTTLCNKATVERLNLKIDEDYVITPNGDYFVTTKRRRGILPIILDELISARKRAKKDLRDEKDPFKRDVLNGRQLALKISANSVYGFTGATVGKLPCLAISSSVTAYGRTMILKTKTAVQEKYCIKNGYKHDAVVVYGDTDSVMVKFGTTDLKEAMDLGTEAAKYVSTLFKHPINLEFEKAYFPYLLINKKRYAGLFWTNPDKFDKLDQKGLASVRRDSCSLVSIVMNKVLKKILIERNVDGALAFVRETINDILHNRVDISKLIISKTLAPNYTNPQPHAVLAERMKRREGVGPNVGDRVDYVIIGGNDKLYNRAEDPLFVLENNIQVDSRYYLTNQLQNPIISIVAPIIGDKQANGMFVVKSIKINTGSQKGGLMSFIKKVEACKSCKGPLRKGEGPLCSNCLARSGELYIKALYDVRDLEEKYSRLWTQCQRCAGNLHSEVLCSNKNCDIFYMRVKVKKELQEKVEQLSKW
Assay: co-purification; mini-Pol δ-DV overexpressed in yeast and purified as a three-subunit complex; subunits seen in approximately equimolar ratio (Supplementary Figure S1A)

binding: binds
Substance: Pol32-11 (amino acids 1–142 + 310–350, lacking amino acids 143–309) (from UniProt P47110 1-350) (domain or fragment)
